The series is described as follows: general procedure: Fmoc solid-phase peptide synthesis; HATU (manual SPPS). The following applies: whole synthesis, overall.
As for Oct-TriA1, the isolated yield is 11%.

Oct-TriA1(2,8-D-Lys, 7-Lys) gave an isolated yield of 6%.

The substance Oct-TriA1(2,8-D-Orn, 7-Orn) came in with an isolated yield of 6%.

Oct-TriA1(2-D-Lys, 7-Lys): the isolated yield is recorded as 5%.

On to Oct-TriA1(2-D-Orn, 7-Orn), for which the isolated yield is on record as 6%.

For the substance Oct-TriA2, the isolated yield is on record as 5%.

Oct-TriA2(2,8-D-Lys, 7-Lys) yielded an isolated yield of 4%.

Consider Oct-TriA2(2,8-D-Orn, 7-Orn), for which the isolated yield is recorded as 4%.

For the origin of these results see article PMC6457190 (MedChemComm, 2019).
